Reference: article doi:10.1101/2024.02.04.578783
These are yes or no findings as the source states them, for the method shown. Binding seen in cells or lysates may run through a third protein. Some results given as binding are weak or reduced against the parent protein; the word gives no strength. Sequences can lack the tags named with a protein.

Sequences of proteins named here, by UniProt entry; tags and fusion partners are left off. A change or cut given only in a name is not applied to a line headed by its entry.
UniProt Q07820: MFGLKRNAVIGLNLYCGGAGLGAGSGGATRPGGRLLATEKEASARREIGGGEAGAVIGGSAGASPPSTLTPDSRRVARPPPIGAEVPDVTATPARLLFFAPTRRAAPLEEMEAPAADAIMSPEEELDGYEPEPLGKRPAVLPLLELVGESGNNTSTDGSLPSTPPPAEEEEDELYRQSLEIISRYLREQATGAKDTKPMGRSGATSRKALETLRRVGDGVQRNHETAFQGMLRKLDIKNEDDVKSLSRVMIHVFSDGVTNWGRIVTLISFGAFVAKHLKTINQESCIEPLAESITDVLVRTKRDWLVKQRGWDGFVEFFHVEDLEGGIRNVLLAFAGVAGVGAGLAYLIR
UniProt P10415: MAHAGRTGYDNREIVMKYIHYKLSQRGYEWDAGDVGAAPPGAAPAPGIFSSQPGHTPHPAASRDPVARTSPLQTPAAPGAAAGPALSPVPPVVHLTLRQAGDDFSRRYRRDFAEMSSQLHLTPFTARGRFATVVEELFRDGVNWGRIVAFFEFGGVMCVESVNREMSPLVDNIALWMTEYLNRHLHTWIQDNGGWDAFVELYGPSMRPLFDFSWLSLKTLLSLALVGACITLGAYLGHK

Assays:
Experiment in all cases: single-molecule pull-down and co-IP
MCL1-mCherry = MCL1-mCherry (UniProt Q07820)
BCL2 D103E-mCherry = BCL2 D103E-mCherry (UniProt P10415)
BCL2 G101V-mCherry = BCL2 G101V-mCherry (UniProt P10415)
[1] = biological target: BCL2-mCherry (wild type), P10415; settings: remark: other sources report otherwise

Row | Binder | binding (MCL1-mCherry) | binding (BCL2 D103E-mCherry) | binding (BCL2 G101V-mCherry) | binding [1]
1 | BAD-eGFP (protein, UniProt Q92934 1-168) MFQIPEFEPSEQEDSSSAERGLGPSPAGDGPSGSGKHHRQAPGLLWDASHQQEQPTSSSHHGGAGAVEIRSRHSSYPAGTEDDEGMGEEPSPFRGRSRSAPPNLWAAQRYGRELRRMSDEFVDSFKKGLPRPKSAGTATQMRQSSSWTRVFQSWWDRNLGRGSSAPSQ | no binding | binds | binds | 
2 | BAD-eGFP, Q92934 1-168 (protein) MFQIPEFEPSEQEDSSSAERGLGPSPAGDGPSGSGKHHRQAPGLLWDASHQQEQPTSSSHHGGAGAVEIRSRHSSYPAGTEDDEGMGEEPSPFRGRSRSAPPNLWAAQRYGRELRRMSDEFVDSFKKGLPRPKSAGTATQMRQSSSWTRVFQSWWDRNLGRGSSAPSQ |  |  |  | binds
